This is one part of the list. The main result of the screen is listed elsewhere. These columns were measured beside it and carry no call. Most of these compounds were active or inconclusive in the main read-out, so they are no random draw. Potencies come from curve fits of mixed quality, noted in brackets.
Assay: qHTS Assay for Lipid Storage Modulators in Drosophila S3 Cells;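 on cell number change: cells counted by Cell Tracker Red CMTPX staining in the red channel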
Conditions: BODIPY lipid droplet fluorescence, 18-24 h; for cell number change: measured here: cell count max response, cells fed with added oleic acid
Summary of the method: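 Drosophila S3 cells got compounds at several concentrations plus oleic acid (400 uM solution). Laser-scanning cytometry with 488 nm excitation read lipid droplets at 500-530 nm and cells at 575-640 nm. Percent activity was relative to 20 uM Triacsin C.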

[1] = measured here: cell number channel AC50, cells fed with added oleic acid
[2] = measured here: lipid fluorescence (Fed channel) AC50, cells fed with added oleic acid

C/C(=N\OCC(=O)Nn1c(C)nc2ccccc2c1=O)c1ccccc1
AC50 [1]: 0.231 µM [falling, full curve, poor fit] | AC50 [2]: 29.1 µM [falling, single point]

CC1(C)Cc2nc3sc4c(=O)n(Cc5ccccc5)cnc4c3cc2CS1
cell number change: -1.84% | AC50 [2]: 0.411 µM [rising, partial curve]

CC(NC(=O)CNC(=O)c1ccccc1Br)c1cccs1 (stereo unspecified)
cell number change: 17.7%

O=C(CN1CCCCC1)Nc1ccccc1
cell number change: -24.4% | AC50 [2]: 0.103 µM [falling, full curve, poor fit]

C/C(=N\NS(=O)(=O)c1c(C)cc(C)cc1C)c1ccncc1
cell number change: 18.5% | AC50 [2]: 32.6 µM [rising, partial curve, poor fit]

COc1ccc(N2CC(C(=O)Nc3cc(C(F)(F)F)ccc3N3CCCC3)CC2=O)c(OC)c1 (stereo unspecified)
cell number change: -33%

CCOc1ccc(CCNC(=O)CN2C(=O)CCSc3ccccc32)cc1
cell number change: 11.9% | AC50 [2]: 0.00461 µM [falling, full curve, poor fit]

O=C(O)c1ccc(S(=O)(=O)N2CCC(c3nc(-c4ccccc4Cl)no3)CC2)cc1
cell number change: 34.9% | AC50 [1]: 5.17 µM [rising, full curve, poor fit]

CCOC(=O)/C(=N\Nc1cc(Cl)ccc1Cl)N1CCN(C)CC1
cell number change: 9.49% | AC50 [2]: 0.411 µM [rising, full curve]

O=C1[C@@H]2CSCN2C(=O)CN1Cc1ccc(F)cc1
cell number change: -36% | AC50 [1]: 29.1 µM [falling, single point] | AC50 [2]: 29.1 µM [falling, single point]

COc1ccc(Cc2nnc(N/N=C/c3ccc(O)cc3)[nH]c2=O)cc1OC
cell number change: 6.91% | AC50 [2]: 0.164 µM [rising, full curve, poor fit]

COc1cc(C=Nc2cccc([N+](=O)[O-])c2C)ccc1OC(C)=O
cell number change: -9.17% | AC50 [2]: 29.1 µM [rising, partial curve, poor fit]

CC(C)c1ccc(N2C(=O)CSC23C(=O)N2CCCc4cccc3c42)cc1 (stereo unspecified)
AC50 [2]: 1.84 µM [rising, partial curve]

Cc1cccc(NC(=O)c2cc([N+](=O)[O-])ccc2N2CCCCC2)n1
cell number change: 12.5% | AC50 [1]: 6.51 µM [rising, single point]

CCCCCNC(=O)c1ccc2c(=O)[nH]c3c(C(=O)NCC4CCCO4)sc(=S)n3c2c1 (stereo unspecified)
AC50 [2]: 0.517 µM [rising, single point]

Cc1ccc(NC(=O)c2cnccn2)nc1
cell number change: 16.8%

COC(=O)C(N)Cc1ccc(Cl)cc1 (stereo unspecified)
cell number change: -27.5% | AC50 [1]: 1.84 µM [falling, full curve, poor fit] | AC50 [2]: 2.06 µM [falling, full curve]

O=C(C1CCCN(S(=O)(=O)c2ccc(Br)s2)C1)N1CCCCCC1 (stereo unspecified)
AC50 [2]: 29.1 µM [rising, single point]

COc1ccc(-c2csc(N(CC3CCCO3)C(=O)c3ccccc3)n2)cc1 (stereo unspecified)
AC50 [1]: 6.51 µM [rising, single point] | AC50 [2]: 1.03 µM [rising, partial curve]

Cc1cc(N2CCCCC2)nc(SCc2ccc(C#N)cc2)n1
cell number change: -26% | AC50 [2]: 32.6 µM [falling, single point]

Cc1ccc(-n2ncc3c2CCCC3NC(=O)CSc2ccccn2)cc1C (stereo unspecified)
cell number change: -64% | AC50 [1]: 31.6 µM [falling, single point] | AC50 [2]: 25.1 µM [falling, single point]

CC1CCCN(Cc2nc3c(c(=O)n(C)c(=O)n3C)n2Cc2c(F)cccc2Cl)C1 (stereo unspecified)
AC50 [1]: 0.164 µM [rising, full curve, poor fit]

Cc1c(NS(=O)(=O)c2ccc(N=NN(C)C)cc2)c(=O)n(-c2ccccc2)n1C
cell number change: 39.5% | AC50 [1]: 6.51 µM [rising, full curve, poor fit] | AC50 [2]: 14.6 µM [rising, partial curve]

CC(C)(C)c1ccc(OCC(O)CN2CCN(C(=O)c3ccccc3)CC2)cc1 (stereo unspecified)
cell number change: -37% | AC50 [1]: 23.1 µM [falling, single point] | AC50 [2]: 11.6 µM [falling, single point]

CSc1nc2c(c(=O)[nH]1)C(c1cccc(Br)c1)CC(=O)N2 (stereo unspecified)
cell number change: 2.99% | AC50 [1]: 0.092 µM [falling, full curve, poor fit]

CC1CCN(C(=O)c2ccc(S(=O)(=O)Cc3cc(F)ccc3F)c([N+](=O)[O-])c2)CC1
cell number change: -3.27% | AC50 [2]: 2.06 µM [falling, partial curve]

COC(=O)[C@H](C)NC(=O)COc1ccccc1
cell number change: -6.47% | AC50 [2]: 32.6 µM [falling, single point]

COc1ccc(C(=O)N/N=C/c2ccc(OC)c(OS(=O)(=O)c3ccccc3)c2)cc1
cell number change: 17.8% | AC50 [1]: 0.82 µM [rising, full curve, poor fit] | AC50 [2]: 1.3 µM [rising, full curve]

CCOC(=O)c1c(S(=O)(=O)N(C)Cc2ccccc2)c(C)n(C)c1C
cell number change: -6.92%

CCOc1ccc(Nc2nc(Cc3nnc(SCC(=O)NCC4CCCO4)n3C)cs2)cc1 (stereo unspecified)
cell number change: 10.6%

Cc1ccc(C)c2[nH]c(=O)c(CN(CCN3CCCC3)C(=O)Nc3ccc(F)cc3)cc12
cell number change: -6.85%

N/C(=N\OC(=O)COc1ccccc1)c1cccnc1
cell number change: -4.9%

COc1ccccc1CNC(=O)CCCn1nc(C)c2c(C)n(-c3ccc(C)cc3)nc2c1=O
AC50 [2]: 1.16 µM [rising, partial curve, poor fit]

O=S(=O)(NCCC1=CCCCC1)c1ccc(F)cc1
cell number change: -5.45% | AC50 [2]: 0.651 µM [rising, partial curve, poor fit]

O=C(Cc1c(F)cccc1Cl)Nc1nccs1
cell number change: -5.56% | AC50 [2]: 29.1 µM [rising, single point]

CCOc1cc(C(=O)N=c2sccn2C)ccc1OC(F)F
AC50 [2]: 13 µM [falling, partial curve]

C[C@H](C(=O)O)c1n[nH]c(=O)c2ccccc12
cell number change: -13.6% | AC50 [2]: 4.11 µM [falling, full curve, poor fit]

CN(CCc1ccccc1)Cc1nc(-c2cnccn2)no1
cell number change: 10.9% | AC50 [2]: 29.1 µM [rising, single point]

O=C(Nc1ccccc1-c1ccccc1)c1cnccn1
cell number change: 38.7% | AC50 [1]: 32.6 µM [rising, partial curve, poor fit]

O=C(O)C1=C(OCc2ccc(F)c(F)c2)C(=O)NCC1
cell number change: 16.3%

CC(C)OC(=O)CCC(=O)Nc1nc2ccccc2s1
cell number change: -19.3% | AC50 [2]: 29.1 µM [rising, single point]

CCc1ccccc1NC(=O)c1ccoc1C
AC50 [1]: 2.31 µM [rising, partial curve] | AC50 [2]: 0.116 µM [rising, full curve, poor fit]

O=C(Nc1cc2cccc([N+](=O)[O-])c2oc1=O)c1cccs1
cell number change: 99.2% | AC50 [1]: 18.4 µM [rising, single point]

O=C(N/N=C/c1ccc[nH]1)c1cccnc1
cell number change: 38.7% | AC50 [1]: 0.411 µM [rising, full curve] | AC50 [2]: 0.82 µM [rising, full curve]

COc1ccccc1-n1nnnc1SCC(=O)NCC1(N2CCOCC2)CCCCC1
cell number change: -2.84% | AC50 [2]: 6.51 µM [falling, single point]

COc1ccc(C)cc1NC(=O)c1cc2c(CO)cnc(C)c2oc1=N
cell number change: 3.37% | AC50 [2]: 9.2 µM [rising, partial curve]

Cc1ccc(S(=O)(=O)/N=C2/NC(=O)/C(=C\c3cc(Br)cc(Br)c3O)S2)cc1
cell number change: -56.7% | AC50 [1]: 6.51 µM [falling, single point] | AC50 [2]: 5.8 µM [falling, full curve]

Cc1ccc(-c2nc3sc4c(c3c(=O)n2N)CCCC4)cc1
cell number change: 102% | AC50 [1]: 2.91 µM [rising, partial curve] | AC50 [2]: 0.82 µM [rising, partial curve]

CN(Cc1cnn(Cc2ccccc2)c1)C(=O)CN=C1NS(=O)(=O)c2ccccc21
cell number change: 10.6% | AC50 [2]: 0.82 µM [rising, full curve, poor fit]

O=[N+]([O-])c1cc(C(F)(F)F)ccc1SCC(O)CO (stereo unspecified)
AC50 [1]: 0.00461 µM [falling, full curve, poor fit]

CC(NS(=O)(=O)c1cccc(Cl)c1)C(=O)Nc1ccc(-c2nc3ccccc3s2)cc1 (stereo unspecified)
cell number change: -44.2% | AC50 [1]: 29.1 µM [falling, single point] | AC50 [2]: 2.06 µM [rising, partial curve]

CC1(C)CC(=O)C(C=NC2CC(C)(C)NC(C)(C)C2)=C(O)C1
cell number change: 0.79% | AC50 [2]: 1.3 µM [falling, full curve]

Cc1ccc(N2C(=O)N3[C@H](c4ccc(Br)cc4)[C@@H]4C(=O)N(C(C)(C)C)C(=O)[C@@H]4[C@]3(C)C2=O)cc1
cell number change: -12.9%

Cc1ccccc1CN1C(=O)CS/C1=N/N=C/c1ccco1
cell number change: -5.35% | AC50 [2]: 0.0058 µM [falling, full curve, poor fit]

O=C(NC1CCCCC1)c1ccc(CS(=O)(=O)c2ccc(Cl)cc2)o1
AC50 [2]: 16.4 µM [falling, partial curve, poor fit]

CCc1nc(OCc2ccco2)c2sc3nc4c(cc3c2n1)COC(C)(C)C4
cell number change: -7.89% | AC50 [2]: 32.6 µM [rising, single point]

Cc1cc(F)ccc1S(=O)(=O)N1CCCOC1CNC(=O)C(=O)NCc1ccccn1 (stereo unspecified)
cell number change: 14.6%

O=C(COC(=O)c1cnccn1)N=c1sccn1Cc1ccccc1Cl
AC50 [2]: 16.4 µM [rising, partial curve]

COc1ccccc1CCNC(=O)/C(=C/c1cccnc1)NC(=O)c1ccccc1
cell number change: 13.6% | AC50 [2]: 1.64 µM [rising, full curve, poor fit]

CC1(c2ccccc2)NC(=O)N(CC(=O)NNC(=O)c2ccccc2)C1=O (stereo unspecified)
cell number change: -15.5% | AC50 [2]: 25.9 µM [rising, partial curve, poor fit]

From PubChem BioAssay AID2685 (National Center for Advancing Translational Sciences (NCATS), 2010)
